Structures can show the parent of a compound that is named as a salt. The list shows a part of the results. The calls rarely recur for the same compound in another form.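 Kinases, fused to nanoluciferase, were expressed in K562 cells; luminescence was measured every 4 h from 2 to 18 h as percent of control (DMSO = 100%, positive control = 0%). A time point is decreased if signal falls significantly (2 sigma). Hits were called by the authors by a rule that is not shown; the count of time points alone does not decide it.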

By UniProt entry, the sequences of proteins in these tests, tags left out. Where a name states a change or a piece, a line headed by the entry shows the natural chain unless it says otherwise.
UniProt Q15208: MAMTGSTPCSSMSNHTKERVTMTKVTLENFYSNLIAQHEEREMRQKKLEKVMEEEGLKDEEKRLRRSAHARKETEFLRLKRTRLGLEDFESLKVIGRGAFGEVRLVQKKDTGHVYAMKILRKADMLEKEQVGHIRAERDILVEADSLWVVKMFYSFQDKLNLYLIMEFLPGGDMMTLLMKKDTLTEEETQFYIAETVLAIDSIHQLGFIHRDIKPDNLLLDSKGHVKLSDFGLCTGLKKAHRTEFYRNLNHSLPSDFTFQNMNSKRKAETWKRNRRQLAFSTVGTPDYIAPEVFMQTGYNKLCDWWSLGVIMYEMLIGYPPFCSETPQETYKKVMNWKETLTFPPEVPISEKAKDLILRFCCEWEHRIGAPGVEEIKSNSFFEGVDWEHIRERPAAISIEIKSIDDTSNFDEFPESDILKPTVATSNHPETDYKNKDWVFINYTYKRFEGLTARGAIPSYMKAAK
UniProt P42680: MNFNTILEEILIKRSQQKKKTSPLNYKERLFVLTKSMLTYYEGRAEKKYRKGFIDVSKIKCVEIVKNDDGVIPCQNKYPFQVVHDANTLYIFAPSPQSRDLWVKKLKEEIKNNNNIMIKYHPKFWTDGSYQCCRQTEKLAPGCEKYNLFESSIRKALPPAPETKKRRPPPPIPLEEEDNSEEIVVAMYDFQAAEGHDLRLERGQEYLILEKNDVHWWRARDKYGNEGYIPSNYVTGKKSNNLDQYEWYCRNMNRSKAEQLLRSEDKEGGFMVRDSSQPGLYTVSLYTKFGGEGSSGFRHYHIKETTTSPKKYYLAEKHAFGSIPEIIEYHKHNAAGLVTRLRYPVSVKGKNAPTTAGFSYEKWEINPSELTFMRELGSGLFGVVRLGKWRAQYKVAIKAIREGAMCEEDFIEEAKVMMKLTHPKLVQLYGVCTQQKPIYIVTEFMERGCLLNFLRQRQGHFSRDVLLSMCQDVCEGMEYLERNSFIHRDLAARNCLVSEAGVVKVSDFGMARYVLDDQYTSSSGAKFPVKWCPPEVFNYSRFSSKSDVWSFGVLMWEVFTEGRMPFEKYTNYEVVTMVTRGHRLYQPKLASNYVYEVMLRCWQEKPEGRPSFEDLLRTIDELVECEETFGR
UniProt P07947, whole entry, looked up: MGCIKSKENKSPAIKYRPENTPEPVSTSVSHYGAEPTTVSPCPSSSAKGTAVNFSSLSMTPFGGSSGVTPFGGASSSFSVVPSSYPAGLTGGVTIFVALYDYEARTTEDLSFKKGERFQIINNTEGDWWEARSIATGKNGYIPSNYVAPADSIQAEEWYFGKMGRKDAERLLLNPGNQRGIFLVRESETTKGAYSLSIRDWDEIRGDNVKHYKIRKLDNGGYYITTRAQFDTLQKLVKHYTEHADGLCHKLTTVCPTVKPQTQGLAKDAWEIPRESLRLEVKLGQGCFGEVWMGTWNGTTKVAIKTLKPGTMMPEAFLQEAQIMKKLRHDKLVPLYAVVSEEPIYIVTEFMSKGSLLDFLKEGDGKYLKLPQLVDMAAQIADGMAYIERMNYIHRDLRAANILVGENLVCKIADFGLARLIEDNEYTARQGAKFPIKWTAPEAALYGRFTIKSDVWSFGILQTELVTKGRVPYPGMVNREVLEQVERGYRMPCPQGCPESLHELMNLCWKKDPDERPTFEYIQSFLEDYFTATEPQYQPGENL
UniProt P43403: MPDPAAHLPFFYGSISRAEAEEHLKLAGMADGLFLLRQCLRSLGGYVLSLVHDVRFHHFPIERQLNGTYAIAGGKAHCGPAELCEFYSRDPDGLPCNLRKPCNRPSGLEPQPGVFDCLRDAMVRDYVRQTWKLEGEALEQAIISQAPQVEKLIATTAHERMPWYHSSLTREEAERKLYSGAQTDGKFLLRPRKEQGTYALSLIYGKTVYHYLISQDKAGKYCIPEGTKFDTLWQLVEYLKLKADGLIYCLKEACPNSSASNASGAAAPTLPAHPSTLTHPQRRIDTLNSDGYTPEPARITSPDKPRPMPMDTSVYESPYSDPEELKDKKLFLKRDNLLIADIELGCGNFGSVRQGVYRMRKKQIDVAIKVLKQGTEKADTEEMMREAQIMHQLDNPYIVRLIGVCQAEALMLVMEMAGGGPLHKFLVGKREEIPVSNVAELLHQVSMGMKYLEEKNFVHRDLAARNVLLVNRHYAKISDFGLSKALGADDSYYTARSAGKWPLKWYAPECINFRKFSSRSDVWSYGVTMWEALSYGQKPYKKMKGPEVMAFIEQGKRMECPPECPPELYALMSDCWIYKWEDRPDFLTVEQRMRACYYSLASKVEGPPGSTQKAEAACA
UniProt P31749: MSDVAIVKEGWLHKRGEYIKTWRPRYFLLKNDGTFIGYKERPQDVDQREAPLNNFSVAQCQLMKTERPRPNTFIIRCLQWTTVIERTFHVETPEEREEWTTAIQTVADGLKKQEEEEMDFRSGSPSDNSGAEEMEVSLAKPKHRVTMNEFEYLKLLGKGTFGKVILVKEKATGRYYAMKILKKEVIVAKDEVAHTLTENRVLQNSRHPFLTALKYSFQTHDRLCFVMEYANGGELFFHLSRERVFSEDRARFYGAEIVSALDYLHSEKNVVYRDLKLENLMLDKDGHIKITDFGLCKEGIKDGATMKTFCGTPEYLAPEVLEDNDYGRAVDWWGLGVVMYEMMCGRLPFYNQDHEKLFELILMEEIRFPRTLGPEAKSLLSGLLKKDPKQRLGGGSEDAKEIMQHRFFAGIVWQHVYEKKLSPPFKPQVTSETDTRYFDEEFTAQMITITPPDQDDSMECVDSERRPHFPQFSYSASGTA
UniProt P10398: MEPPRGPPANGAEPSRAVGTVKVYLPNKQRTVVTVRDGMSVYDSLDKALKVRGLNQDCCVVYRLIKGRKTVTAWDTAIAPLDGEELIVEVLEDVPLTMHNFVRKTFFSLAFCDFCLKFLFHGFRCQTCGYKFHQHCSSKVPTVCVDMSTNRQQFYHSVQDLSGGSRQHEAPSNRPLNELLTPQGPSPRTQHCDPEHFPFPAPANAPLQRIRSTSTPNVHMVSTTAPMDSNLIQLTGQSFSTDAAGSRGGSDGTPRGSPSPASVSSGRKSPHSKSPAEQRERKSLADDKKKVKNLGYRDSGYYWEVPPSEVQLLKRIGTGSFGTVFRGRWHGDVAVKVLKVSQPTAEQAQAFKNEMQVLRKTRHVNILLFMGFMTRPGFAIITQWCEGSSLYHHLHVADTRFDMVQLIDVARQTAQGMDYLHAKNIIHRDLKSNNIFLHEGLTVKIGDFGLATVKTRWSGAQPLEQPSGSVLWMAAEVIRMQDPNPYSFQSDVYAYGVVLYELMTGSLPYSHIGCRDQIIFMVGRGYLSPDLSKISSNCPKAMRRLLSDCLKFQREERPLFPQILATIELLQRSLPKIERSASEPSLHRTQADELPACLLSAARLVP
UniProt O14965: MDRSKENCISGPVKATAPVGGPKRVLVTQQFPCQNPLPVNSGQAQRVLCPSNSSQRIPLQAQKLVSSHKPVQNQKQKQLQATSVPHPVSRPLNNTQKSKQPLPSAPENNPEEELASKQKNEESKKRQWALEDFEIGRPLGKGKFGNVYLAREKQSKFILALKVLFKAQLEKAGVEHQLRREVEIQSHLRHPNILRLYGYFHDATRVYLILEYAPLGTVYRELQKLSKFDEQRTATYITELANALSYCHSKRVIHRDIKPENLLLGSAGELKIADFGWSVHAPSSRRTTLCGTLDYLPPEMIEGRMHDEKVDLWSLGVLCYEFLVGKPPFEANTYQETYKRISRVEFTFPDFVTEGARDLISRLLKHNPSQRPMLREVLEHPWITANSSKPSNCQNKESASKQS
UniProt Q96GD4, whole entry: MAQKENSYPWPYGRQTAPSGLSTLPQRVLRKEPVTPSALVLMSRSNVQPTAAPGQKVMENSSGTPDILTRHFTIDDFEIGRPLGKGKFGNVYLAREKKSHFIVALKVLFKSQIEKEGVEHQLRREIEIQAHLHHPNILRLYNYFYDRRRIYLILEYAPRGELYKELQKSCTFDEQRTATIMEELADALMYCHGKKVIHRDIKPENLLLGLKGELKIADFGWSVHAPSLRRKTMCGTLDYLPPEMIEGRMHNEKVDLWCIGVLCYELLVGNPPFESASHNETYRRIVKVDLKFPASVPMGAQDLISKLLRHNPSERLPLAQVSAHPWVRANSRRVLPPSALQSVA
UniProt Q9UQB9: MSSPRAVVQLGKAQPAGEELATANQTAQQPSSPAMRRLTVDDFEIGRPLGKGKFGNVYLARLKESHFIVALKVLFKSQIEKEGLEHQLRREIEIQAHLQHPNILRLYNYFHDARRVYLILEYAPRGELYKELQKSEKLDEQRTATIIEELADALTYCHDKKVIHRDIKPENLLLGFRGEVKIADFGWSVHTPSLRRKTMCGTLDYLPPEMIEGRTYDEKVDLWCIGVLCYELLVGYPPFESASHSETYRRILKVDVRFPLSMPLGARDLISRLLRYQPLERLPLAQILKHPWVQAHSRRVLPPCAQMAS
UniProt P51451: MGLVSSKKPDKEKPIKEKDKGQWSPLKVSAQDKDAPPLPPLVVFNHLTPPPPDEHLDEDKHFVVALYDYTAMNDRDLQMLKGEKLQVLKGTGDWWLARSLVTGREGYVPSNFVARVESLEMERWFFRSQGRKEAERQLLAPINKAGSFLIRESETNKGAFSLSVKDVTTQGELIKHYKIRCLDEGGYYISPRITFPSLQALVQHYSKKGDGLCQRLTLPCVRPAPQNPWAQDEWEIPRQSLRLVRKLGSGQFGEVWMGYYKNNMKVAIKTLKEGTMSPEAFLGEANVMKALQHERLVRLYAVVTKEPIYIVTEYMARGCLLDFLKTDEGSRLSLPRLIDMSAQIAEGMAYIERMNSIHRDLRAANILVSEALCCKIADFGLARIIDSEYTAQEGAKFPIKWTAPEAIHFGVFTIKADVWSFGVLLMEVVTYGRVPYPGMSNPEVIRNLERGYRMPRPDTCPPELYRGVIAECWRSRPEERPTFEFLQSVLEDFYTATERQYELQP
UniProt P51813: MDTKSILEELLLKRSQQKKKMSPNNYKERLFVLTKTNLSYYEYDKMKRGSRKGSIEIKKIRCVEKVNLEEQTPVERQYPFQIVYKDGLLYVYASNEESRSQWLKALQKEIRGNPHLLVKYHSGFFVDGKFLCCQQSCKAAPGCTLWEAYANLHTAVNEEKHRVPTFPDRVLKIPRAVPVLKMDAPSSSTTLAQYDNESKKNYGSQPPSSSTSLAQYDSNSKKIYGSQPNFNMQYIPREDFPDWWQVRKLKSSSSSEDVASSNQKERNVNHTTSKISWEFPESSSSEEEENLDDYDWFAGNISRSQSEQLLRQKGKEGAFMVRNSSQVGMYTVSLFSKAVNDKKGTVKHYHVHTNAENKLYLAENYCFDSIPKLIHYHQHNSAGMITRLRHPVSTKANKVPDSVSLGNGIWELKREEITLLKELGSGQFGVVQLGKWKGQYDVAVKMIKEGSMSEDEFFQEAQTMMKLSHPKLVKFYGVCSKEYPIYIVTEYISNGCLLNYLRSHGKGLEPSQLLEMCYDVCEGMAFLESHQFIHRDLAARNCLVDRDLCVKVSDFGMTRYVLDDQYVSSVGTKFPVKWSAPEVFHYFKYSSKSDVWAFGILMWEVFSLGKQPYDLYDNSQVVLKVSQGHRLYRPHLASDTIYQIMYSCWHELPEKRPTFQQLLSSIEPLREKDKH
UniProt P15056, whole entry, looked up: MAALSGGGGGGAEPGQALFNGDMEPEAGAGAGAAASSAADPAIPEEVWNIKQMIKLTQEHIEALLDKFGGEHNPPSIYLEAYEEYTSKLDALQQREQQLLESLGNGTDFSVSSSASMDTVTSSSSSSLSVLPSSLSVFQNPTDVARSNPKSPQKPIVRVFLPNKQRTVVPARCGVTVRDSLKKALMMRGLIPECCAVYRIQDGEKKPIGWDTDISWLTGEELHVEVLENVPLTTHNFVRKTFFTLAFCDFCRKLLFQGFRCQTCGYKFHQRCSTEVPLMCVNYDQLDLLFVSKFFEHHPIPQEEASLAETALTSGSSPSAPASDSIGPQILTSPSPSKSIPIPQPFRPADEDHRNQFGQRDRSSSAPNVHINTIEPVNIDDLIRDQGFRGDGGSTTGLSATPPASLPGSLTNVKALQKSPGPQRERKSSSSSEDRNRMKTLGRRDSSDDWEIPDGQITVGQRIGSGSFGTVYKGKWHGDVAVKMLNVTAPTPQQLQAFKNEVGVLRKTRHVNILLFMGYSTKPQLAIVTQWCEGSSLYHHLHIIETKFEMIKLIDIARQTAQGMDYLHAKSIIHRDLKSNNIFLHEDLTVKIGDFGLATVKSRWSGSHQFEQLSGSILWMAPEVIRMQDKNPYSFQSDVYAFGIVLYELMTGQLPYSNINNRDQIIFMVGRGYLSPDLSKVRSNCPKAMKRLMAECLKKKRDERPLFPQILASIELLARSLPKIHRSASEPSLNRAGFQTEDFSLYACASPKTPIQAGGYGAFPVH

Common to all, as to conditions: K562; 2-18 h
For one assay, the target named is STK38 (UniProt Q15208). Description: kinase-Nluc reporter destabilization hit call (1 = scored as downregulated) (binary); higher = compound decreases kinase abundance.
The target in a further assay is SYK (UniProt P43405). The description is as above.
The next assay concerns the target TEC (UniProt P42680). Described as above.
For another assay, the target named is TYK2 (UniProt P29597). The description is as above.
Another assay deals with ULK3 (UniProt Q6PHR2). The assay is described as above.
The next assay deals with YES1 (UniProt P07947). The description is as above.
In the next assay the target is ZAK (UniProt Q9NYL2). The description is as above.
Another assay addresses ZAP70 (UniProt P43403). Described as above.
A further assay concerns the target ABL1 (UniProt P00519). Description: number of time points (of 5) at which kinase-Nluc abundance scored as decreased, DMSO-normalised (count); higher = more persistent destabilization.
A further assay deals with AKT1 (UniProt P31749). Described as above.
The next assay concerns the target ALK (UniProt Q9UM73). Described as above.
The next assay has as its target ARAF (UniProt P10398). Described as above.
In a further assay the target is AURKA (UniProt O14965). The assay is described as above.
For a further assay, the target named is AURKB (UniProt Q96GD4). The description is as above.
Another assay deals with AURKC (UniProt Q9UQB9). Described as above.
The target of a further assay is BLK (UniProt P51451). The description is as above.
For the next assay, the target named is BMX (UniProt P51813). Described as above.
For a further assay, the target named is BRAF (UniProt P15056). Described as above.
A further assay has as its system BRAF_V600E. The description is as above.
In a further assay the target is BTK (UniProt Q06187). The description is as above.

As to `CC(C)n1c([C@H](C)Nc2ncnc(N)c2C#N)cc2cccc(-c3ccc(=O)n(C)c3)c2c1=O` (10 µM), the “kinase-Nluc reporter destabilization hit call” value with STK38, with SYK, with TEC, with TYK2, in the assay with ULK3 and with YES1 was inactive: 0 in each case. Moreover, the “kinase-Nluc reporter destabilization hit call” value in the assay with ZAK and in the assay with ZAP70 was inactive: 0 throughout. Further, the “number of time points” value with ABL1, with AKT1, in the assay with ALK, with ARAF, with AURKA and in the assay with AURKB was 0 throughout. Also, the “number of time points” value in the assay with AURKC, with BLK, with BMX, with BRAF, in the assay with BRAF_V600E and with BTK was 0 each time.
`N#Cc1ccc(-c2cnc3ccc(-c4ccc(C(=O)N5CCOCC5)cc4)cn23)cc1` (10 µM): the “kinase-Nluc reporter destabilization hit call” value with STK38, in the assay with SYK, with TEC, in the assay with TYK2, in the assay with ULK3 and with YES1 was inactive: 0 in each case. Besides, the “kinase-Nluc reporter destabilization hit call” value in the assay with ZAK and with ZAP70 was inactive: 0 throughout. The “number of time points” value with ABL1, with AKT1, in the assay with ALK, with ARAF, with AURKA and with AURKB was 0 throughout. Also, the “number of time points” value with AURKC, with BLK, in the assay with BMX, in the assay with BRAF, with BRAF_V600E and in the assay with BTK was 0 throughout.
Take `Cn1ncc(NC(=O)c2nc(-c3c(F)cccc3F)sc2N)c1N1CC[C@@H](N)[C@H](F)CC1` (10 µM): the “kinase-Nluc reporter destabilization hit call” value in the assay with STK38, with SYK, with TEC, with TYK2, in the assay with ULK3 and with YES1 was inactive: 0 in each case. The “kinase-Nluc reporter destabilization hit call” value with ZAK and in the assay with ZAP70 was inactive: 0 in each case. Also, the “number of time points” value with ABL1 worked out at 3; in the assay with AKT1, 0; with ALK, 0; with ARAF it was 0; with AURKA it was 0; with AURKB it was 0. The “number of time points” value with AURKC, with BLK, with BMX, with BRAF, with BRAF_V600E and with BTK was 0 throughout.
For the compound `C=CC(=O)Nc1cc(Nc2nccc(-c3cn(C)c4ccccc34)n2)c(OC)cc1N(C)CCNC` [AZ7550 Mesylate] (2.5 µM), the “kinase-Nluc reporter destabilization hit call” value with STK38, with SYK, with TEC, with TYK2, in the assay with ULK3 and with YES1 was inactive: 0 in each case. In addition, the “kinase-Nluc reporter destabilization hit call” value with ZAK and in the assay with ZAP70 was inactive: 0 throughout. In addition, the “number of time points” value was found to be 2 in the assay with ABL1; 0 with AKT1; 0 with ALK; 0 with ARAF; 0 with AURKA; 0 in the assay with AURKB. Besides, the “number of time points” value in the assay with AURKC worked out at 0; in the assay with BLK, 2; with BMX it was 0; in the assay with BRAF, 0; in the assay with BRAF_V600E, 2; in the assay with BTK, 0.
As to `c1nc2c(NC3CCCCC3)nc(Nc3ccc(N4CCOCC4)cc3)nc2[nH]1` [Reversine] (10 µM), the “kinase-Nluc reporter destabilization hit call” value with STK38, in the assay with SYK, with TEC, with TYK2, with ULK3 and with YES1 was inactive: 0 in each case. For the same compound, the “kinase-Nluc reporter destabilization hit call” value in the assay with ZAK and with ZAP70 was inactive: 0 in each case. Also, the “number of time points” value is 1 with ABL1; 0 with AKT1; 1 with ALK; 0 with ARAF; 0 with AURKA; 0 with AURKB. Moreover, the “number of time points” value came to 0 with AURKC; 0 with BLK; 0 with BMX; 0 in the assay with BRAF; 4 in the assay on BRAF_V600E; 0 with BTK.
